Results published in article doi:10.1101/2020.08.31.275271.
Read-outs that look alike come from different tables or passages of the source. No constants are given. Whether binding was seen depends on the method and setting. For some of these results: In cells and extracts the contact can be indirect. Some entries that bind do so weakly or less than the wild type. For some of these results: Sequences can lack the tags named with a protein.

Amino acid sequences for entries named in this document (tags omitted).
UniProt Q94AH6: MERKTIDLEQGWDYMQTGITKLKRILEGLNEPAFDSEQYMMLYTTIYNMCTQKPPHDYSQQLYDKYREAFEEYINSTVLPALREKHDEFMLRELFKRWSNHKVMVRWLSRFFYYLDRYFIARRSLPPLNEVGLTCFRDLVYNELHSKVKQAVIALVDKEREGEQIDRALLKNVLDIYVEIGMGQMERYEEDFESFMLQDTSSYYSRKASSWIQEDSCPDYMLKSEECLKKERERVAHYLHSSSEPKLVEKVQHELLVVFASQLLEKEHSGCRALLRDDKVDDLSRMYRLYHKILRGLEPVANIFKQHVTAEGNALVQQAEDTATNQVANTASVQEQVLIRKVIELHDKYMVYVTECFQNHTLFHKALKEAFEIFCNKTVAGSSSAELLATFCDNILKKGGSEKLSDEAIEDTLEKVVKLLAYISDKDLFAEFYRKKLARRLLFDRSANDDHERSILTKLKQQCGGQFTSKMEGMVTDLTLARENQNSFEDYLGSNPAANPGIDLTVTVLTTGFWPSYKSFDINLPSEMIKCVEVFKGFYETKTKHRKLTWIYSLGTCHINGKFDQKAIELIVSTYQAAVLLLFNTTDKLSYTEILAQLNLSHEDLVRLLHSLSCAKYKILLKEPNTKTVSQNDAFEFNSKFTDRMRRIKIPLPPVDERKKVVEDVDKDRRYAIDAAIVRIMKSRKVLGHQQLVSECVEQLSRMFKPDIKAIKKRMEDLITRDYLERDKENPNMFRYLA
UniProt Q9CAZ0: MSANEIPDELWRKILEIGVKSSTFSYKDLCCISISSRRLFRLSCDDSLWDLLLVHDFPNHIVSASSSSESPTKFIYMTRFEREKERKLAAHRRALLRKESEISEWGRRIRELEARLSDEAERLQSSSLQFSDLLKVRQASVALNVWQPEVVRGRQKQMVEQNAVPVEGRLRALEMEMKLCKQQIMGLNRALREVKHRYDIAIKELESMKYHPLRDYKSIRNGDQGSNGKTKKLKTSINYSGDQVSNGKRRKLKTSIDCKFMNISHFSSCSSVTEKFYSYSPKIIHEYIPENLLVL
UniProt Q39255: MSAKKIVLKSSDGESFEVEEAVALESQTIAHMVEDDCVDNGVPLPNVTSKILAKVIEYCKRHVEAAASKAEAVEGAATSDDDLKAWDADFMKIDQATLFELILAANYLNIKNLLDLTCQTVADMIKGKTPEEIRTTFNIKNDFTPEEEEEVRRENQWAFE

Tests used:
[1] = biological target: Cullin 1, GAL4 DNA-binding domain fusion (pDEST-GBKT7) (Arabidopsis thaliana) (UniProt Q94AH6); test: two-hybrid
[2] = biological target: F-box protein At1g08710 (GAL4 DNA-binding domain fusion, pDEST-GBKT7) (Arabidopsis thaliana) (UniProt Q9CAZ0); test: two-hybrid
[3] = biological target: F-box protein At1g08710 (GAL4 DNA-binding domain fusion, pDEST-GBKT7) (Arabidopsis thaliana) (UniProt Q9CAZ0); test: two-hybrid; remark: listed apart in the source
[4] = biological target: F-box protein At1g08710, N-YFP fusion (pSAT4-DEST-N, 1-174 N-YFP) (Arabidopsis thaliana) (UniProt Q9CAZ0); test: split reporter

ASK1 (Arabidopsis SKP1 like protein 1), GAL4 activation domain fusion (pDEST-GADT7) (from UniProt Q39255 1-160)
binding [1]: binds | binding [2]: binds

B1: ALTERATION/… IN ACTIVATION 2B (ADA2b), GAL4 activation domain fusion (pDEST-GADT7) (protein, UniProt Q9ATB4 1-487)
chain: MGRSRGNFQNFEDPTQRTRKKKNAANVENFESTSLVPGAEGGGKYNCDYCQKDITGKIRIKCAVCPDFDLCIECMSVGAEITPHKCDHPYRVMGNLTFPLICPDWSADDEMLLLEGLEIYGLGNWAEVAEHVGTKSKEQCLEHYRNIYLNSPFFPLPDMSHVAGKNRKELQAMAKGRIDDKKAEQNMKEEYPFSPPKVKVEDTQKESFVDRSFGGKKPVSTSVNNSLVELSNYNQKREEFDPEYDNDAEQLLAEMEFKENDTPEEHELKLRVLRIYSKRLDERKRRKEFIIERNLLYPNPFEKDLSQEEKVQCRRLDVFMRFHSKEEHDELLRNVVSEYRMVKRLKDLKEAQVAGCRSTAEAERYLGRKRKRENEEGMNRGKESGQFGQIAGEMGSRPPVQASSSYVNDLDLIGFTESQLLSESEKRLCSEVKLVPPVYLQMQQVMSHEIFKGNVTKKSDAYSLFKIDPTKVDRVYDMLVKKGIAQL
binding [3]: binds

B2: ADA2b, C-YFP fusion (pSAT5-DEST-C, 175-END C-YFP) (protein, UniProt Q9ATB4 1-487)
chain: B1 chain
binding [4]: binds
